In patent US4952598A, “3-phenyl indolinone derivatives, processes for their preparation, medicaments containing them, and their use” (Hoechst Aktiengesellschaft, priority 1985, dated 1990):
pIC50: −log10 of the molar value. Counter-ions that a name gives are not always drawn. At least one structure is not confirmed: it was looked up by name or label, or the drawing left a doubt.

target: calcium channels; assay: 3H-nitrendipine binding (nitrendipine displacement) test; details: 3H-nitrendipine 0.1 nM, rat brain cortex membranes, pH 7.4, 25° C., 60 min
Experimental: Their calcium-antagonistic activity can be shown in the biochemical test model of displacement of tritium-labeled nitrendipine.
This entails membrane preparations which contain isolated calcium channels being loaded with labeled substance.
After incubation with the test substance, the radioactivity which has been released into the supernatant solution is determined. […] The compounds of the formula I are likewise very active in other test models with which a calcium-antagonistic action can be detected, for example the coronary blood flow in the isolated guinea pig heart, or the action potential of the isolated guinea pig papillary muscle.
The test of the activity of substances in the ^3 H-nitrendipine binding test was carried out in a membrane preparation obtained from the cortex of the rat brain and washed several times, the method used essentially being that described by R.J. Gould et al. (Proc. Natl. Acad. Sci. USA 79, 3656 [1982]). The membrane suspension was diluted 1:1500 with TRIS buffer pH 7.4 (50 mM TRIS.HCl, 150 mM NaCl, 1.0 mM CaCl2 and 0.001% by weight, based on TRIS.HCl, NaCl and CaCl2 in solution, of a neutral surface-active substance such as, for example, Genapol^(R)) was incubated in 5 ml portions with ^3 H-nitrendipine (0.1 nM in the test, specific activity 81.3 Ci/mmol) in a shaking water bath at 25° C. for 60 min. The membrane fractions were removed by vacuum filtration through Whatman GF/F glass fiber filters, and the radioactivity was measured in a liquid scintillation counter. The unspecific ^3 H-nitrendipine binding was determined in the presence of 1 μM nifedipine.

| SMILES | pIC50 |
| --- | --- |
| COc1cc(CCN2CCN(CCCCOc3ccccc3C3(Cc4ccccc4)C(=O)N(C)c4ccccc43)CC2)cc(OC)c1OC (stereo not drawn) [Example 2, 3-Benzyl-1-methyl-3-[2-(4-(4 (2-(3,4,5-trimethoxyphenyl)ethyl)piperazinyl)butoxy)phenyl]indolin-2-one dihydrochloride] | 6.00 |
| COc1cc(CC(=O)N2CCN(CCCCOc3ccccc3C3(C(C)C)C(=O)N(C)c4ccccc43)CC2)cc(OC)c1OC (stereo not drawn) [Example 7, 3-Isopropyl-1-methyl-3-[4-(4-(3,4,5-trimethoxyphenylacetyl)-1-piperazinyl)butoxyphenyl)indolin-2-one hydrochloride] | 7.38 |
| COc1cc(CCN2CCN(CCCCOc3ccccc3C3(C(C)C)C(=O)N(C)c4ccccc43)CC2)cc(OC)c1OC (stereo not drawn) [Example 4, 3-Isopropyl-1-methyl-3-[2-(4-(4-(2-(3,4,5-trimethoxyphenyl)ethyl)piperazinyl)butoxy)phenyl]indolin-2-one dihydrochloride] | 8.30 |
